Laboratory results: paper PMC3689823
Results are given in words; binding and its absence hold for the method and conditions named. In cells and extracts the contact can be indirect. Some results given as binding are weak or reduced against the parent protein; the word gives no strength.

Amino acid sequences for entries named in this document (tags omitted). Residues count along the entry.
UniProt Q06890, residues 22-448: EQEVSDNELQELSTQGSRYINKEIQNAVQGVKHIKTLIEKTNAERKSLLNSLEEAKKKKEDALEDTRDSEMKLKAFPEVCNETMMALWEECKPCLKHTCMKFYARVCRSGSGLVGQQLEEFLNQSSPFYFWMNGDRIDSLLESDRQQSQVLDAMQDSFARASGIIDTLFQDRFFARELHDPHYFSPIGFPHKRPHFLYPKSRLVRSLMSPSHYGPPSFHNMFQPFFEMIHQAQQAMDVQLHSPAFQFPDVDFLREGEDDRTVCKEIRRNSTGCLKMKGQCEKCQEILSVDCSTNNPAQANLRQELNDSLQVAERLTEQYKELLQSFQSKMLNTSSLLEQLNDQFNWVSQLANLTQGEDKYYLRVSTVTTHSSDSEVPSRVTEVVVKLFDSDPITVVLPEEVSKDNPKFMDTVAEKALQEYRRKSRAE

Target: T1, endogenous SelR (mouse cerebral cortex) (mouse (endogenous in cerebral cortex)) (UniProt Q9JLC3)
T1 sequence: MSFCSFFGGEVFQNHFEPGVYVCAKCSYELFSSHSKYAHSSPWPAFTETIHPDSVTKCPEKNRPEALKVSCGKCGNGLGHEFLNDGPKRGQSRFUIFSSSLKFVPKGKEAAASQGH
Test: co-IP; mouse cerebral cortex lysate in RIPA buffer; IP with SelR antibody overnight at 4°C, Western blot with Clu antibody

- binding: binds
Substance: endogenous Clu (mouse cerebral cortex) (from UniProt Q06890 22-448)
